Results are given in words; binding and its absence hold for the method and conditions named. Binding seen in cells or lysates may run through a third protein. Some binding calls cover weakened binding; strength is not graded here.
Experiments:
[1] = target: paxillin (human (endogenous in THP-1)) (UniProt P49023); test: co-IP; THP-1 cells stably expressing EGFP-PAK4, seeded on fibronectin with TGF-beta for 16 h; lysate (0.5% NP-40 lysis buffer) incubated with 1-2 ug anti-paxillin or anti-vinculin overnight at 4 C, protein A/G agarose; blots probed for PAK4 and reprobed for GFP
[2] = target: paxillin (human (endogenous in THP-1)) (UniProt P49023); test: co-IP; endogenous PAK4 in immunoprecipitates when a large number of cells was used (Figure S4C)
[3] = target: WASP (human (endogenous in THP-1)) (UniProt P42768); test: co-IP; anti-WASP immunoprecipitation, blot for PAK4 (Figure S4D)

Chains of the proteins cited; added tags and fusions are not shown.
UniProt P49023: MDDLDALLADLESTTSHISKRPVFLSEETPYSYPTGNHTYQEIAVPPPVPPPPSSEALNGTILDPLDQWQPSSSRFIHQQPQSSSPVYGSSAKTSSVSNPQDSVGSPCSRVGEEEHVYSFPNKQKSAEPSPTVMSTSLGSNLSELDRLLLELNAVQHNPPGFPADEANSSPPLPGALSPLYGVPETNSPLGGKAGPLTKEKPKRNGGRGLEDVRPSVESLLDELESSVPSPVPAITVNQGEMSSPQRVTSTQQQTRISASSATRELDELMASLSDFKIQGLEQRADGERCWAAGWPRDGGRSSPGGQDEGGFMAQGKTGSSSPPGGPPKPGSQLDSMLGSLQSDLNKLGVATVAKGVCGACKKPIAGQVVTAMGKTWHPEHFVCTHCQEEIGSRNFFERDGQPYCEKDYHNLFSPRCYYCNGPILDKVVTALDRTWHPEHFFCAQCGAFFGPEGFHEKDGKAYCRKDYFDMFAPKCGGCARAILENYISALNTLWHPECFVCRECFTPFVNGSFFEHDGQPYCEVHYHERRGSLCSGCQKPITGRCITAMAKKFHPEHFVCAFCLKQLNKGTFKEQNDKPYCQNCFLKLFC
UniProt P42768: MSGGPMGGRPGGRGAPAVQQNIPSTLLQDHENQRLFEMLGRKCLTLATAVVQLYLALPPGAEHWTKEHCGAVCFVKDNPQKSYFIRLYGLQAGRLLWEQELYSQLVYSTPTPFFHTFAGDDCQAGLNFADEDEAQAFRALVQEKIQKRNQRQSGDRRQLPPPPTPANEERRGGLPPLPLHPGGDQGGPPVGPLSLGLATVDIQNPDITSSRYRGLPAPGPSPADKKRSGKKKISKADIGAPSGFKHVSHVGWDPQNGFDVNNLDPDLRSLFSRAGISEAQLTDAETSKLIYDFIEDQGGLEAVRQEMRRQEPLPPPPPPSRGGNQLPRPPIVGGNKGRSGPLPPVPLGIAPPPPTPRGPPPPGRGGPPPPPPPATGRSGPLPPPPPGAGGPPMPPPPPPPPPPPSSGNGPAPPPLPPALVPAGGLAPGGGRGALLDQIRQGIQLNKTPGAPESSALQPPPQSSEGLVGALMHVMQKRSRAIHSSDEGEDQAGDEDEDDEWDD
UniProt O96013: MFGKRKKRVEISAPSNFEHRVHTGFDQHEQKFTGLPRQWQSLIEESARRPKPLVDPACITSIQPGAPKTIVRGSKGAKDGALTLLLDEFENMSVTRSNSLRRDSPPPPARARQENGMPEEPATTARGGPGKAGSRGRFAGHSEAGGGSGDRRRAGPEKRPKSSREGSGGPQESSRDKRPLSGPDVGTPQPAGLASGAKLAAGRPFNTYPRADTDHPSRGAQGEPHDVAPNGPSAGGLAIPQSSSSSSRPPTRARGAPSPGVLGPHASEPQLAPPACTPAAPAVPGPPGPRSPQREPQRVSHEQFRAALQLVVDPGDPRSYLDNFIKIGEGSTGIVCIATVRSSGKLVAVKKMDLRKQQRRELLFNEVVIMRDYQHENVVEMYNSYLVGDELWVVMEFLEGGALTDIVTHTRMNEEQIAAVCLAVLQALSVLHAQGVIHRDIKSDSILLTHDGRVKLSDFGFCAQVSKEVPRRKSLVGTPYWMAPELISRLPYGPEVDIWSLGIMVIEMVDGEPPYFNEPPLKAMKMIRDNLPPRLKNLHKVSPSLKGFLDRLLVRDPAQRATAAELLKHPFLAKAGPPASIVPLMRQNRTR

Row | binding [1] | binding [2] | binding [3] | Substance
1 | binds |  |  | EGFP-PAK4 (from UniProt O96013 1-591) (enzyme)
2 |  | binds weakly | no binding | endogenous PAK4 (from UniProt O96013 1-591) (enzyme)

Source: publication PMC6915307
